Binding signal data for 42 sequences are collected here from PMC7819943, “Rice protein-binding microarrays: a tool to detect cis-acting elements near promoter regions in rice”.

Amino acid sequences for entries named in this document (tags omitted).
UniProt Q0JBA9, entry or part of it: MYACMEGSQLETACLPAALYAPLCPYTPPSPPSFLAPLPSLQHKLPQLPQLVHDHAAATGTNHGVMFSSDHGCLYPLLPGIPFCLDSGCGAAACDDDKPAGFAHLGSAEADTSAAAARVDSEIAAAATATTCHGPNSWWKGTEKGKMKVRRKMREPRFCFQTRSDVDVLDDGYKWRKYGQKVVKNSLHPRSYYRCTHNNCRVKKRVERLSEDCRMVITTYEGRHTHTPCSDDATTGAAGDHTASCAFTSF

Some of the results follow.

The experiment has as its target OsWRKY34 (Oryza sativa, UniProt Q0JBA9 1-250). As to the kind of experiment: protein-binding microarray (RPBM); PBS, 2% BSA, 51.3 ng/ul salmon testes DNA, 50 uM zinc acetate, 200 nM TF, 25 C, 1 h; high values mean tight binding. Particulars: protein: recombinant; tags: N-terminal polyhistidine and DsRed monomer fusion (pET32a); label: CyDye5-dUTP incorporated in the synthesized complementary strand; 3' TTTTT single-stranded linker to array surface; dsDNA, one strand shown. Put shortly:
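A custom Agilent array was converted to double-stranded form by primer extension with Cy5-dUTP and blocked with 2% BSA. Protein at 200 nM in PBS with 2% BSA, salmon testes DNA and 50 µM zinc acetate was applied for 1 h at 25 °C, followed by washing. The proteins were polyhistidine–DsRed N-terminal fusions of transcription factors, expressed in E. coli BL21-CodonPlus and Ni–NTA-purified. The binding signal is per-feature fluorescence intensity (arbitrary units) from an Axon 4000B scanner.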
Take “CAACCCATGAAACCAAAATACTCCGAGGCCCGTTTATTACCGGAGTCACCTAGTGCAG”: the binding signal is 8660 fluorescence intensity (a.u.).

Turning to “GGAAGCAGCCATCCTCTGCCATTTGCTCGCATGTTGAACGCGGAGTCACCTAGTGCAG”, the binding signal was 9180 fluorescence intensity (a.u.).

For “GAACTCTCAAGTCTCGAGCCTCATGTTTTTTCCTCTCCACCGGAGTCACCTAGTGCAG”, the binding signal was 10800 fluorescence intensity (a.u.).

“CCTTCTCTTCGCGTGATCTTTCTTCGCACGCAGTTGGCACCGGAGTCACCTAGTGCAG”: the binding signal was 10200 fluorescence intensity (a.u.).

In the case of “ACATGCTATACATCCCAACGGTAACCTCGTTCTCATCATACGGAGTCACCTAGTGCAG”, the binding signal was 10600 fluorescence intensity (a.u.).

“GACACGTACGCCCGCATCCGCGCCAGCTCCGACCGCAGCGCGGAGTCACCTAGTGCAG”: the binding signal is 8220 fluorescence intensity (a.u.).

Take “GGTATTAGTGGTTGGGTGCTTTACGCTGCTCGCTGGATCTCGGAGTCACCTAGTGCAG”: the binding signal is 11900 fluorescence intensity (a.u.).

“AGCGGCACCCTGGCTTTCCCGTCAGGCACAACCCTTTTTACGGAGTCACCTAGTGCAG”: the binding signal is 8660 fluorescence intensity (a.u.).

As to “AGCTGCCGGCTGGTGTGCACAATGGCTGTTTGTTCCTTGACGGAGTCACCTAGTGCAG”, the binding signal was 8070 fluorescence intensity (a.u.).

Consider “TTCGTCGTCCACCACCGTTCGACGAGTTTCTCGCAGATCGCGGAGTCACCTAGTGCAG”, for which the binding signal is 8100 fluorescence intensity (a.u.).

Consider “CTTTTTGGTTGGATATTTGCTTGCAAACTCTATATGTTTTCGGAGTCACCTAGTGCAG”, for which the binding signal is 11200 fluorescence intensity (a.u.).

Turning to “GGACCGACCCTTTTATTTGTCCATCCATAATAATTCCGCGCGGAGTCACCTAGTGCAG”, the binding signal is 9300 fluorescence intensity (a.u.).

For “TTTTAGATTTTAATTTCTTCTTCATCTCTTTCATTCATTTCGGAGTCACCTAGTGCAG”, the binding signal is 8570 fluorescence intensity (a.u.).

In the case of “GCGCCGGCTGATCCGGAACCCCAACACGTACGCCAGCCTCCGGAGTCACCTAGTGCAG”, the binding signal was 9980 fluorescence intensity (a.u.).

“AGTGTCAAGCTAGCTCTACACATTGTACAACCACACTACACGGAGTCACCTAGTGCAG”: the binding signal is 8510 fluorescence intensity (a.u.).

With “AACGCCGCCACCACCACCGCCGCCGCCTCCTGAATAGATTCGGAGTCACCTAGTGCAG”, the binding signal was 9170 fluorescence intensity (a.u.).

For the sequence “CCTGTTCTCTTCTTCTATACATGCAAGCAAAAAATTCGAACGGAGTCACCTAGTGCAG”, the binding signal is 9810 fluorescence intensity (a.u.).

On to “TGTTCCAGTGTGGCAACTAGCACTTCCCACGTCCTTGCCACGGAGTCACCTAGTGCAG”, for which the binding signal was 8030 fluorescence intensity (a.u.).

With “CTTTGAGTCGTCTCTCTCATTCAACTCGTACATTTTTTCTCGGAGTCACCTAGTGCAG”, the binding signal is 9930 fluorescence intensity (a.u.).

With “GCGTTGGATTTGATTGGGCCTCACCGAAATTTCGGTCCGACGGAGTCACCTAGTGCAG”, the binding signal is 8880 fluorescence intensity (a.u.).

For the sequence “AGCCGCAGCCCGCCACTCGCCTCCGCCCTCCGCGCGCGCGCGGAGTCACCTAGTGCAG”, the binding signal was 9950 fluorescence intensity (a.u.).

For the sequence “GGCGGCCGGAGCGGCGCGACTTCCCATCTAACATATTGCTCGGAGTCACCTAGTGCAG”, the binding signal was 8130 fluorescence intensity (a.u.).

As for “TCCGATCCATCCATCCCTACCGTCCATCATCGGGCCACCACGGAGTCACCTAGTGCAG”, the binding signal was 12300 fluorescence intensity (a.u.).

Consider “AAAATATTGTATATTCTTGGTTTGTGTCTATAACTCTCTTCGGAGTCACCTAGTGCAG”, for which the binding signal was 8480 fluorescence intensity (a.u.).

With “CGCCGTTGACTTTTTCTCATATGTTTGACCATTCATCTTACGGAGTCACCTAGTGCAG”, the binding signal is 38900 fluorescence intensity (a.u.).

In the case of “CGCCCAATTCATGACGCCTCCTCGCCGGCTTCGCCGCACTCGGAGTCACCTAGTGCAG”, the binding signal is 8620 fluorescence intensity (a.u.).

Turning to “GATCTCTTTTTCGCCGCGCGTGAAGCCCATCTCCCTGCCACGGAGTCACCTAGTGCAG”, the binding signal was 8460 fluorescence intensity (a.u.).

Consider “AAATCATCGTCATTGTCGTTGTTTTGTTGTTGCCAGTTTACGGAGTCACCTAGTGCAG”, for which the binding signal is 8450 fluorescence intensity (a.u.).

For “TCTCCTGCTCTGGTCTCTCCATCACCTAATAGGACCCATCCGGAGTCACCTAGTGCAG”, the binding signal is 8380 fluorescence intensity (a.u.).

Turning to “TCATAACAGTCAAAAATTTGCTAGGTCTGTCCTTATGTCACGGAGTCACCTAGTGCAG”, the binding signal was 9350 fluorescence intensity (a.u.).

As for “ATTCCACCGTAGTCGTACCCCGCCCTCTGCTTTTACTAGTCGGAGTCACCTAGTGCAG”, the binding signal is 14000 fluorescence intensity (a.u.).

As for “CCCCTCGAGTCTGATCCTCCCACTACCAACGTCCACCGGCCGGAGTCACCTAGTGCAG”, the binding signal is 9210 fluorescence intensity (a.u.).

As for “GTCGTGCCGTCTCCAGTCCCGTCGCCGCGCCGCCTCCTCGCGGAGTCACCTAGTGCAG”, the binding signal is 12900 fluorescence intensity (a.u.).

As for “ATTGCTTTGTAGTAATCCATCCATGCACCCACCTCTCTTTCGGAGTCACCTAGTGCAG”, the binding signal is 9200 fluorescence intensity (a.u.).

For “CATAACAACATACAAATCAAGCTATACATCCATGATTTTTCGGAGTCACCTAGTGCAG”, the binding signal is 8720 fluorescence intensity (a.u.).

Take “CCTAGCTATGACTATCAATATCCTATATCCTATGCCGTTTCGGAGTCACCTAGTGCAG”: the binding signal was 9370 fluorescence intensity (a.u.).

In the case of “GCCATCTATCTTTCCACAATATATACTCACCTTCACCACCCGGAGTCACCTAGTGCAG”, the binding signal was 8500 fluorescence intensity (a.u.).

On to “GTATTGTGTCCGGTTTTAACGCCTACGTGGCTTCTTTTGACGGAGTCACCTAGTGCAG”, for which the binding signal is 12200 fluorescence intensity (a.u.).

Turning to “CGGACCCTCATATTATCCATTGCTTACTGTTTCAGCAATTCGGAGTCACCTAGTGCAG”, the binding signal is 8330 fluorescence intensity (a.u.).

For “TGGAGTACCACCTTTGGTTTGTTCAAGCTGTTTTCTTTTTCGGAGTCACCTAGTGCAG”, the binding signal is 9850 fluorescence intensity (a.u.).

Take “TAGTTGTTGTTGTTGTTATTTGTTAATTGGGCCTTGTTCACGGAGTCACCTAGTGCAG”: the binding signal is 12300 fluorescence intensity (a.u.).

For the sequence “TTCCATTTCTTGGCACCACCTCCGAGGCTCTGACTTCCTACGGAGTCACCTAGTGCAG”, the binding signal is 8030 fluorescence intensity (a.u.).
